The DeepSol protein solubility set

Test: soluble on expression in E. coli; label from the status in PepcDB or PDB records

Sequence | soluble on expression in E. coli
ALWQFRSLIKCAIPGSHPLLDFNNYGCYCGLGGSGTPVDELDRCCETHDCCYRDAKNLDSCKFLVDNPYTESYSYSCSNTEITCNSKNNACEAFICNCDRNAAICFSKAPYNKEHKNLDTKKYCKGESDKC | soluble
EGVVEAVACFAYTGRTAQELSFRRGDVLRLHERASSDWWRGEHNGMRGLIPHKYITLPAGTEKQVVGAG | soluble
FEKFRWFISSEGFLVIGGKDATTNEIVVKKHMDENDIYCHADIWGAPHVIIKNGRNASEKTIREACQFAVAMSRAWSEGLASADAYWVYPEQVSKQAPAGEYLPK | not soluble
GDMENIPWYPKKISDLDKCANRVLMYGSDLDADHPGFKDNVYRKRRKYFADLAMNYKHGDPIPEIEFTEEEIKTWGTVYRELNKLYPTHACREYLKNLPLLTKYCGYREDNIPQLEDVSRFLKERTGFTIRPVAGYLSPRDFLAGLAFRVFHCTQYVRHSSDPLYTPEPDTCHELLGHVPLLAEPSFAQFSQEIGLASLGASDEAVQKLATCYFFTVEFGLCKQEGQLRVYGAGLLSSISELKHSLSGSAKVKPFDPKVTCKQECLITTFQEVYFVSESFEEAKEKMREFAKTIKRPFGVKYNPYTQSVQILKD | soluble
GNSATSADEQPHIGNYRLLKTIGKGNFAKVKLARHILTGKEVAVKIIDKTQLNSSSLQKLFREVRIMKVLNHPNIVKLFEVIETEKTLYLVMEYASGGEVFDYLVAHGRMKEKEARAKFRQIVSAVQYCHQKFIVHRDLKAENLLLDADMNIKIADFGFSNEFTFGNKLDTFCGSPPYAAPELFQGKKYDGPEVDVWSLGVILYTLVSGSLPFDGQNLKELRERVLRGKYRIPFYMSTDCENLLKKFLILNPSKRGTLEQIMKDRWMNVGHEDDELKPYVAPLPDYKDPRRTELMVSMGYTREEIQDSLVGQRYNEVMATYLLLGYK | soluble
GSDGEPLVGGDTDDQLQGGSGADRLDGGAGDDILDGGAGRDRLSGGAGADTFVFSAREDSYRTDTAVFNDLILDFEASEDRIDLSALGFSGLGDGYGGTLLLKTNAEGTRTYLKSFEADAEGRRFEVALDGDHTGDLSAANVVFAATGTTTELEVLGDSGTQAGAIV | soluble
GSPEFHMDALGPLPDGWEKKIQSDNRVYFVNHKNRTTQWEDPRTQGQEVSLINEGPLPPGWEIRYTAAGERFFVDHNTRRTTFEDPRP | soluble
LTQELGTAFFQQQQLPAAMADTFLEHLCLLDIDSEPVAARSTSIIATIGPASRSVERLKEMIKAGMNIARLNFSHGSHEYHAESIANVREAVESFAGSPLSYRPVAIALDTKGPEIRTGILQGGPESEVELVKGSQVLVTVDPAFRTRGNANTVWVDYPNIVRVVPVGGRIYIDDGLISLVVQKIGPEGLVTQVENGGVLGSRKGVNLPGAQVDLPGLSEQDVRDLRFGVEHGVDIVFASFVRKASDVAAVRAALGPEGHGIKIISKIENHEGVKRFDEILEVSDGIMVARGDLGIEIPAEKVFLAQKMMIGRCNLAGKPVVCATQMLESMITKPRPMRAETSDVANAVLDGADCIMLSGETAKGNFPVEAVKMQHAIAREAEAAVYHRQLFEELRRAAPLSRDPTEVTAIGAVEAAFKCCAAAIIVLTTTGRSAQLLSRYRPRAAVIAVTRSAQAARQVHLCRGVFPLLYREPPEAIWADDVDRRVQFGIESGKLRGFLRVGDLVIVVTGWRPGSGYTNIMRVLSIS | soluble
MASFDEAPPGNPKAGEKIFRTKCAQCHTVEKGAGHKQGPNLNGLFGRQSGTTPGYSYSAANKSMAVNWEEKTLYDYLLNPKKYIPGTKMVFPGLKKPQDRADLIAYLKEGTA | soluble
MDDGIAMGHIGMRYSLPSRELIADAAETVINAHWFDGVFYIPNCDKITPGMILAAMRTNVPAVFCSGGPMKGGVDMTGHQATLSSLFEAVGTYQSGDMSKEELDYLEKNACPTCGSCSGMFTANSMNCLMEVLGLALPGNGTILAVSDERRELVRQTATKLMDNIKNNVRPRDIVTKEAIDDAFALDMAMGGSTNTVLHTLAIAREAGIDYDLKDINDIAKKTPYLSKIAPSSIYTMHDVHEAGGVPAIINQLIKKGAIKGDRITVTGKTLKENVAGAKIKNEEIIHPIEQPISPVGGLSILYGNIAQDGSVIKVGGVDPSVKTFRGKAICCDSQAQALELIDNGTVKKGHVVVIRYEGPQGGPGMPEMLAPTSKIVGRGLDKDVALITDGRFSGATRGIAIGHVSPEAAEGGNIALIEDGDEIVIDLPNRTLDLLVDDVTLEARRKHLKPFKSKISSGWLRRYTAFAKSANIGGTLMSNEEFEERKAERQAQEKNLEHHHHHH | not soluble
MDWIYSWKDSIFYGMCSCSGSPSYHEKDVPHPHDRLDMPLQLKAYRRNSLNAEGYYRDLERMHERGLFTTGINYNAEKSEDFLNMIERMQSNRLDDQRCEMPERTHNPTSGHQNEQTHQKTNGSAVHNQLTRNIMNEVLTKVGPYPQIVLPSNGFWMDGVNQQHHMDDQVNNMNVNSCARFKLETDETSHCYRRHFFGREHHDFFANDPIVGPLVLSVRTEVISSCDHFRIILRTRKGTIHEIVSATALADRPSASRMAKLLCEEITTEQFSPVAFPGGSELIVQYDEHVLTNTYKFGVIYQKGGQTTEEQLFGNPHGSPAFDEFLSMIGDSVQLNGFQKYRGGLDTAHNQTGHQSVFSEFKNREIMFHVSTMLPYTIGDAQQLQRKRHIGNDIVAIIFQEANTPFAPDMIASNFLHAYVVVQPIDALTDRVRYRVSVAARDDVPFFGPTLPTPSIFKRGQDFRNFLLTKLINAENAAYKSSKFAKLAERTRSSLLDGLHATLRERAEFYATPLLESTSSGGESAATTSSSSNSYGGGILSSVKKAFIGRSRSVSQEASHVPHRAATINVTSRPKKSISSTSSSTSARTHSPIRDEEVVKPYRKEWEISSQESPDNEHDSDTGMESMSSTEMSGQTRASSCTFCVDDFHVAANHQSSDAKRLETLCVDVTRLQNEKHDLLRQNVSCKTDIKKLKDRQSVLSEELERANDEISRLRRMLKKPSNSDMAPVHQHFERSYSDVSV | not soluble
MGHHHHHHSHMANSMANSMPSSPLRVAVVCSSNQNRSMEAHNILSKRGFSVRSFGTGTHVKLPGPAPDKPNVYDFKTTYDQMYNDLLRKDKELYPSGLPFKNPPCGPPWKVLRVARAQEACHPVQCTHWLLCLCESLVSIPGARRIVHGLVPVPPMAVGVVRRTDTVWGSP | not soluble
MGHLGKTRWTREEDEKLKKLVEQNGTDDWKVIANYLPNRTDVQCQHRWQKVLNPELIKGPWTKEEDQRVIKLVQKYGPKRWSVIAKHLKGRIGKQCRERWHNHLNPEVKKTSWTEEEDRIIYQAHKRLGNRWAEIAKLLPGRTDNAIKNHWNSTMRRKV | soluble
MGKDYYKVLGISKGATDDEIKKAYRKMALKYHPDKNKEAGAENKFKEIAEAYDVLSDDKKKKIYDQFGEEGLKEGGPGAGGGGGGGMHYEFRGDPMNIFSSFFGGSDPFGAGGPGMFDLGGGAGGPNMFFMNQGGMDDGMFGGMHQGGRRGHARQDPAVLHDLSVSLEDVLKGTTKKMKITRKVMTDNAQRLEDKVLTVTIKPGWKSGTKITFPKEGDQHPNRTPADIVFVIKDKPHPKFKREGSDIKRVEKISLKSALTGLDIMIPTLDGADYRLQLNDVIKPGTTRRLTGKGLPNPKSPSHRGDLIIEFDVEFPSQLNPTQREVILRNF | not soluble
MGSDKIHHHHHHMIKKINMEVNTTENKTLEQDYRDLAGLLSNIVDSLPIYFFVKDTGDNFRYVYSSPLMNQLYGRYHNDVVGKTDFDLFLDPVVAQSFRDMDEEVVKTGKMQRFVEQMIDPKGILRTMDTMKLLAPREDKPPYLVGISWDITKQRQVEEELHSYNKRLALACQAGKIYPWLWDLVNGTAELSLEENGQIKHVQITHASFTEKIHPDYRKVYENITTAFMRGEIDSMRFSFPCRYFSDEYVWLEKIGEVYEADPDGKPIRSIGILRDMTVDKRHEADVQAKRLAEESDRMKSAFIANMSHEIRTPLNAIVGFSTLLAESDDEEEKKEYLRIIESSNEFLLQLIGDILDISKIESGKMEFIYTTLRLSEIFAPQQQAFALRVAPGVKVIFESDGNDYCIVSEKTRLTQVLTNFLSNAVKFTSSGSIRFGYRLTDDGIYVYVTDTGMGISKESQASIFNRFVKLNSFKQGTGLGLSICKTIIEKLKGKIGVESEEGKGSTFWFTIPCQPMKVK | not soluble
MGSDKIHHHHHHMSATKLTRREQRARAQHFIDTLEGTAFPNSKRIYITGTHPGVRVPMREIQLSPTLIGGSKEQPQYEENEAIPVYDTSGPYGDPQIAINVQQGLAKLRQPWIDARGDTEELTVRSSDYTKARLADDGLDELRFSGVLTPKRAKAGRRVTQLHYARQGIITPEMEFIAIRENMGRERIRSEVLRHQHPGMSFGAHLPENITAEFVRDEVAAGRAIIPANINHPESEPMIIGRNFLVKVNANIGNSAVTSSIEEEVEKLVWSTRWGADTVMDLSTGRYIHETREWILRNSPVPIGTVPIYQALEKVNGIAEDLTWEAFRDTLLEQAEQGVDYFTIHAGVLLRYVPMTAKRLTGIVSRGGSIMAKWCLSHHQENFLYQHFREICEICAAYDVSLSLGDGLRPGSIQDANDEAQFAELHTLGELTKIAWEYDVQVMIEGPGHVPMQMIRRNMTEELEHCHEAPFYTLGPLTTDIAPGYDHFTSGIGAAMIGWFGCAMLCYVTPKEHLGLPNKEDVKQGLITYKIAAHAADLAKGHPGAQIRDNAMSKARFEFRWEDQFNLALDPFTARAYHDETLPQESGKVAHFCSMCGPKFCSMKISQEVRDYAATQTIEMGMADMSENFRARGGEIYLRKEEA | not soluble
MGSSHHHHHHSSGRENLYFQGHERLTLDTRLRQALERNELVLHYQPIVELASGRIVGGEALVRWEDPERGLVMPSAFIPAAEDTGLIVALSDWVLEACCTQLRAWQQQGRAADDLTLSVNISTRQFEGEHLTRAVDRALARSGLRPDCLELEITENVMLVMTDEVRTCLDALRARGVRLALDDFGTGYSSLSYLSQLPFHGLKIDQSFVRKIPAHPSETQIVTTILALARGLGMEVVAEGIETAQQYAFLRDRGCEFGQGNLMSTPQAADAFASLLDRQKASGQRPVHGHETAP | soluble
MLHPYRMEGYIIPPQQTEEMFETEIYRPPMEYQYIIDDSQNDHSWDYNTHHIHPVDFENLPESHFTELQSVQSLHAASVHRFPDVESSHFMDPGLGSHHIPLTNPQMTYLPRTSVCYPHNVQPSPLQRSSDEEDPSSRSPPLEVSDEECMRDHISSTTGGEHGNKKKIRLYQFLLDLLRNGDMKDSIWWVDREKGTFQFSSKHKEVLANRWGIQKGNRKR | not soluble
MRTEYCGQLRLSHVGQQVTLCGWVNRRRDLGSLIFIDMRDREGIVQVFFDPDRADALKLASELRNEFCIQVTGTVRARDEKNINRDMATGEIEVLASSLTIINRADVLPLDSNHVNTEEARLKYRYLDLRRPEMAQRLKTRAKITSLVRRFMDDHGFLDIETPMLTKATPEGARDYLVPSRVHKGKFYALPQSPQLFKQLLMMSGFDRYYQIVKCFRDEDLRADRQPEFTQIDVETSFMTAPQVREVMEALVRHLWLEVKGVDLGDFPVMTFAEAERRYGSDKPDLRNPMELTDVADLLKSVEFAVFAGPANDPKGRVAALRVPGGASLTRKQIDEYGNFVKIYGAKGLAYIKVNERAKGLEGINSPVAKFLNAEIIEDILDRTAAQDGDMIFFGADNKKIVADAMGALRLKVGKDLGLTDESKWAPLWVIDFPMFEDDGEGGLTAMHHPFTSPKDMTAAELKAAPENAVANAYDMVINGYEVGGGSVRIHNGDMQQTVFGILGINEEEQREKFGFLLDALKYGTPPHAGLAFGLDRLTMLLTGTDNIRDVIAFPKTTAAACLMTEAPSFANPTALAELSIQVVKKAENN | soluble
MSLAKTYDYLFKLLLIGDSGVGKTCLLFRFSEDAFNTTFISTIGIDFKIRTIELDGKKIKLQIWDTAGQERFRTITTAYYRGAMGIMLVYDITNEKSFDNIKNWIRNIEEHASSDVERMILGNKCDMNDKRQVSKERGEKLAIDYGIKFLETSAKSSANVEEAFFTLARDIMTKLNRKMNDSNSAGAGGPVKITENRSKKTSFFRCSLLEGHHHHHH | not soluble
